Assay results taken from PubChem BioAssay AID504467 (National Center for Advancing Translational Sciences (NCATS), 2011).
About 7,700 (2.3%) of roughly 330,000 compounds were called active. Inconclusive results, whose numbers are uncertain, are shown with a selection of clear calls. The call rests on the fitted dose curve; in most records, active means well fitted inhibition curve with a large enough effect; inconclusive means small, poorly fitted or top-dose-only effect, or effect the other way; inactive means flat fitted curve, though single readings scatter. Where the call is inconclusive, the potency comes from a doubtful curve fit.

assay: qHTS screen for small molecules that inhibit ELG1-dependent DNA repair in human embryonic kidney (HEK293T) cells expressing luciferase-tagged ELG1; details: HEK293T ELG1-luciferase reporter, luminescence, 16 h, DNA damage induced by 5-fluorouridine; activity change, negative = inhibition: at 46.1 µM (top of the series); further: nearly all actives have a fitted effect of over 55% in size
Procedure, shortened: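 5-Fluorouridine DNA damage + compound/DMSO, 2,000 cells/well, 16 h, 37 °C/5% CO2. ONE-Glo, 30 min RT, luminescence. Readout = decrease in reporter signal.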
On the % scale 0 is the no-effect control and ±100 the full control effect; potency means the concentration at half of the fitted maximal effect.

Compound | Potency | activity change, negative = inhibition
O=C(/C=C/c1ccc(Cl)cc1Cl)Nc1ccc(CN2CCOCC2)cc1 | inconclusive: 2.31 µM [inhibitor, partial curve] | 
COc1ccc(CC(=O)Nc2ccc(-c3nnc(-c4ccccc4)o3)cc2)cc1OC | inconclusive: 12.6 µM [activator, partial curve, poor fit] | 
O=C1C(=O)N(CCCN2CCOCC2)C(c2ccc([N+](=O)[O-])cc2)/C1=C(/O)c1ccc2c(c1)OCO2 (stereo unspecified) |  | inactive: 8.93%
N#C/C(=C\c1cccn1-c1ccccc1)C(=O)NC1CCCCC1 | inconclusive: 10.3 µM [inhibitor, partial curve] | 
CC1CCC2C(C1)OS(=O)(=O)NC2(C)C (stereo unspecified) |  | inactive: 3.01%
CCOC(=O)N1CCN(C(=O)CS(=O)(=O)c2cn(Cc3ccc(F)cc3)c3ccccc23)CC1 | inconclusive: 16.4 µM [inhibitor, single point] | 
Cc1ccc(Oc2ccc(C(F)(F)F)cc2[N+](=O)[O-])c([N+](=O)[O-])n1 | inconclusive: 18.3 µM [activator, single point] | 
CCc1ccc2[nH]c(=O)c(CN(Cc3ccccc3OC)Cc3nnnn3Cc3ccco3)cc2c1 | active: 10.3 µM | 
CC1CCC/C=C/C(=O)c2c(O)cc(O)cc2CC(=O)O1 (stereo unspecified) | active: 8.2 µM | 
CCCN(CCC)S(=O)(=O)c1ccc(C(=O)Nc2nnc(-c3cc(OC)cc(OC)c3)o2)cc1 | active: 1.46 µM | 
CC1(C)Oc2ccc3ccc(=O)oc3c2/C(=C/N)C1=O | inconclusive: 20.6 µM [inhibitor, single point] | 
Nc1nc2ccc(S(=O)(=O)c3ccc4nc(N)sc4c3)cc2s1 |  | inactive: 21.7%
COc1ccc(/C=C(/CC(=O)Nc2ccccc2)c2nc3ccccc3s2)cc1 | inconclusive: 32.6 µM [activator, single point] | 
CCN1CCN(CCNC(=O)c2ccc3c(c2)NC(=O)/C(=C\c2ccc(OC)c(OC)c2)S3)CC1 | inconclusive: 16.4 µM [activator, partial curve] | 
CCN(CC)C(=O)c1sc(NC(=O)c2cccnc2)c(C(=O)OC)c1C | active: 2.59 µM | 
Cc1nc(CSc2nsc(C)c2C#N)cs1 | inconclusive: 18.3 µM [activator, single point] | 
COc1ccc(-c2cn3cc(Cl)ccc3n2)cc1OC | inconclusive: 10.3 µM [activator, partial curve] | 
O=C(Cn1c(=O)[nH]c2ccccc2c1=O)Nc1ccc2c(c1)OCCO2 | inconclusive: 10.3 µM [activator, partial curve, poor fit] | 
N#C/C(=N\Nc1ccc(S(=O)(=O)N2CCCCC2)cc1)C(N)=S | inconclusive: 20.6 µM [inhibitor, single point] | 
COc1ccc(Cc2nc(N)nc(N)n2)cc1 |  | inactive: 22.3%
Cc1ccc(Cl)cc1N1CCN(C(=O)CCS(=O)(=O)c2ccc3c(c2)NC(=O)CO3)CC1 | inconclusive: 32.6 µM [inhibitor, single point] | 
CCN(CC)c1ccc(C=N/C(C#N)=C(\N)C#N)cc1 | inconclusive: 13 µM [activator, single point] | 
CN(CC(=O)Nc1ccccc1Br)C(=O)C(Cc1ccccc1)NC(=O)c1ccccc1 (stereo unspecified) | inconclusive: 29.1 µM [inhibitor, single point] | 
CCC(=O)Nc1cccc(C2=NOC3(C2)C[C@@H](C(N)=O)N(C(=O)CC(c2ccccc2)c2ccccc2)C3)c1 (stereo partly specified) |  | inactive: -6.67%

Compound | Potency | activity change, negative = inhibition
CC(C)c1nnc(NC(=O)c2cccs2)s1 | inconclusive: 9.2 µM [activator, partial curve] | 
COc1ccc(NC(=O)c2cc(-c3ccccc3)nc3c2cnn3C(C)C)c(OC)c1 | inconclusive: 20.6 µM [inhibitor, partial curve, poor fit] | 
CCOC(=O)C1=NN(C(=O)c2ccco2)C2(CC2)C1 | inconclusive: 11.6 µM [activator, partial curve, poor fit] | 
COc1cc(/C=N/N(CCO)C2=NS(=O)(=O)c3ccccc32)cc(OC)c1OC | inconclusive: 13 µM [inhibitor, partial curve] | 
CC(CCc1ccccc1)NC(=O)c1ccccc1Cl (stereo unspecified) | inconclusive: 0.199 µM [activator, full curve, poor fit] | 
CN(C)c1ccc(C(=S)N2CCN(Cc3ccccc3)CC2)cc1 |  | inactive: 6.8%
O=C(c1cc(F)c(F)cc1Cl)N1CCN(c2ccc([N+](=O)[O-])c3ncccc23)CC1 | inconclusive: 16.4 µM [inhibitor, partial curve, poor fit] | 
c1ccc2[nH]c(N3CCOCC3)nc2c1 |  | inactive: 20.2%
CSCCC(NC(=O)c1ccccc1Cl)C(=O)N1CCN(C(c2ccccc2)c2ccccc2)CC1 (stereo unspecified) | inconclusive: 14.6 µM [inhibitor, single point] | 
Nc1nonc1-n1nnc(C(=O)N/N=C/c2cccnc2)c1-c1cccs1 |  | inactive: -0.603%
O=C(C[C@H]1C/C=C\C[C@H](NC(=O)OCC2c3ccccc3-c3ccccc32)C(=O)O[C@H](c2ccccc2)CNC1=O)N[C@H](CO)Cc1ccccc1 | inconclusive: 23.1 µM [activator, partial curve] | 
CCN(CC)c1ccc(/C=C/c2ccc3ccc(OC)cc3[n+]2CC)cc1 | inconclusive: 1.64 µM [inhibitor, partial curve] | 
c1cncc(CNc2ncnc3ccc(-c4ccoc4)cc23)c1 | inconclusive: 0.82 µM [inhibitor, full curve, poor fit] | 
O=C(Nc1ccccc1)C1=C[C@@H](C2CC2)C[C@@H](OCCCCO)O1 | inconclusive: 16.4 µM [activator, partial curve] | 
N#Cc1nc(COc2ccccc2)oc1N1CCCCC1 | inconclusive: 18.4 µM [activator, partial curve] | 
O=C(CN1CCSC1=O)Nc1ccc(N2CCOCC2)cc1 | inconclusive: 20.6 µM [activator, partial curve] | 
Cc1ccc(S(=O)(=O)N2CCC(c3nc4c(nnn4Cc4ccccc4)c(=O)[nH]3)CC2)cc1 | inconclusive: 16.4 µM [inhibitor, partial curve] | 
COc1ccc(NS(=O)(=O)c2ccc(OC)c(OC)c2)cc1OC |  | inactive: -11.6%
O=C1CCN(C(=O)c2cccs2)c2ccccc21 | inconclusive: 6.51 µM [inhibitor, partial curve, poor fit] | 
CC1(C)Cc2c(sc3nc(SCC(=O)O)[nH]c(=O)c23)CO1 |  | inactive: 0.0705%
CCCNC(=O)NC(=O)COC(=O)c1ccc(S(=O)(=O)N(C)c2ccccc2OC)cc1 |  | inactive: -19.8%
O=C(CN1CCCCCC1)N/N=C/c1cccc(Cl)c1Cl | inconclusive: 14.6 µM [activator, single point] | 
O=C(Nc1cccc2nsnc12)c1ccc2c(c1)OCCO2 | inconclusive: 14.6 µM [activator, partial curve] | 
CCN(CC)Cc1c(O)ccc2c(=O)c(-c3ccc4c(c3)OCCO4)coc12 |  | inactive: -9.71%

Looked up above.
activity change, negative = inhibition, CN(C)c1ccc(C(=S)N2CCN(Cc3ccccc3)CC2)cc1 reads inactive: 6.8%
Potency, O=C(CN1CCCCCC1)N/N=C/c1cccc(Cl)c1Cl reads inconclusive: 14.6 µM [activator, single point]

Additional entries.

Compound | Potency | activity change, negative = inhibition
COc1ccc(CNC(=O)CCS(=O)(=O)c2ccc3c(c2)NC(=O)CS3)cc1 |  | inactive: -1.59%
CCN(CCn1cccn1)C(=O)c1cccc(OC2CCN(S(C)(=O)=O)CC2)c1 |  | inactive: 3.56%
c1csc(-c2ncc3ccccn23)c1 | inconclusive: 6.51 µM [activator, single point] | 
CC(=O)Nc1ccc(NC(=O)C2CCCN(c3nnc(-n4cccc4)s3)C2)cc1 (stereo unspecified) |  | inactive: -8.67%
S=c1sc2c(Cl)ncnc2n1-c1ccccc1 | inconclusive: 29.1 µM [inhibitor, single point] | 
O=C(CSc1ccc2nnc(-c3cccc(F)c3)n2n1)N1CCCc2ccccc21 | active: 11.6 µM | 
O=C(CNc1cccc2ccccc12)N/N=C/C(Br)=C/c1ccccc1 |  | inactive: -21.1%
Cc1nn(-c2ccccc2)c(Cl)c1C(=O)NCCCCNC(=O)c1c(C)nn(-c2ccccc2)c1Cl | active: 16.4 µM | 
O=C(NCc1ccc(F)cc1)C1CCCN(c2cnccn2)C1 (stereo unspecified) |  | inactive: 4.95%
CCN(CC)CCCN1C(=O)C(=O)/C(=C(/O)c2ccc3c(c2)OCCO3)C1c1ccc(C)o1 (stereo unspecified) | inconclusive: 16.4 µM [activator, single point] | 
CC(C)NC(=O)/C(C#N)=C/c1ccc2c(c1)OCCO2 | inconclusive: 16.4 µM [activator, partial curve] | 
CCN(CC(=O)Nc1cc(Cl)cc(Cl)c1)CC(=O)NC1CCS(=O)(=O)C1 (stereo unspecified) |  | inactive: -0.803%
CN(C)C(=O)c1cc(C(=O)c2ccc(F)cc2Cl)c[nH]1 | inconclusive: 20.6 µM [activator, partial curve, poor fit] | 
c1ccc(-c2nnsc2-c2nc3ccccc3[nH]2)cc1 |  | inactive: 4.28%
Cc1ccn2c(Nc3ccccc3C)c(-c3ccncc3)nc2c1 | inconclusive: 11.6 µM [inhibitor, partial curve] | 
COc1ccc(OCC(=O)N2CCN(C(=O)c3cccc4ccccc34)CC2)cc1 |  | inactive: -5.06%
O=C(Nc1ccccn1)Nc1cccs1 | inconclusive: 20.6 µM [activator, partial curve] | 
COc1ccc(/C=N/NC(=O)c2[nH]c3ccc(Cl)cc3c2-c2ccccc2)c(C(=O)O)c1OC |  | inactive: 10.8%
CC(NC(=O)C(=O)N1CCOCC1)C(c1cccs1)N1CCN(c2ccc(F)cc2)CC1 (stereo unspecified) |  | inactive: 1.14%
O=C(NCc1ccccc1)c1cc[n+]([O-])cc1 |  | inactive: 4.81%
O=C(NCC1CCCN(Cc2cccc(F)c2)C1)c1cccc2ccccc12 (stereo unspecified) | inconclusive: 20.6 µM [inhibitor, single point] | 
COc1cc(/C=N/Nc2ccc(Cl)c(C(=O)O)c2)ccc1OC(=O)c1ccco1 |  | inactive: 17.4%
COc1ccc(Cl)cc1C(=O)Nc1ccc2c(c1)OCCO2 | inconclusive: 10.3 µM [activator, partial curve] | 

Ordered by length of the SMILES (low to high): some entries from above
Compound | Potency | activity change, negative = inhibition
O=C(NCc1ccccc1)c1cc[n+]([O-])cc1 |  | inactive: 4.81%
CCN(CC(=O)Nc1cc(Cl)cc(Cl)c1)CC(=O)NC1CCS(=O)(=O)C1 (stereo unspecified) |  | inactive: -0.803%
COc1ccc(/C=N/NC(=O)c2[nH]c3ccc(Cl)cc3c2-c2ccccc2)c(C(=O)O)c1OC |  | inactive: 10.8%
